Measurements reported in PubChem BioAssay AID1259304 (Sanger Institute, 2017).
This is a random part of 160 reagents tested. Over the whole deposit, 88 (55%) were called active. 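Four siRNAs per gene, each called on its own in one cell line; calls are not confirmed gene-level hits.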 The numbers tell different reagents against one gene apart. Further read-outs or replicates are left out here. Reagent sequences are not shown. The record does not give: the amount of reagent, the time to read-out.

- Purpose: 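Kinase knock-downs that add to growth loss from colorectal cancer drugs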 (secondary deconvolution rescreen of primary hits)
- System: HT115 human colorectal cancer cells
- Knock-down reagent: single siRNA against human genes
- Conditions: anchor drugs BYL719 at 1 µM, cetuximab at 5 µg/ml or trametinib at 10 nM, each set against DMSO vehicle
- Read-out: 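Viability compared with non-targeting control wells, mean of replicates, and a synergy score comparing the drug-plus-siRNA effect with each effect alone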
- Scale: synergy score with BYL719: higher = stronger synthetic lethal interaction with BYL719; synergy score with cetuximab: higher = stronger synthetic lethal interaction with cetuximab; synergy score with trametinib: higher = stronger synthetic lethal interaction with trametinib
- Hit rule: 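a synergy score over 0.10 with at least one of the three anchor drugs makes an active call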
- Meaning of the calls: active = synergy with at least one anchor drug; inactive = no synergy with any anchor drug

Gene	reagent no.	synergy score with BYL719	synergy score with cetuximab	synergy score with trametinib	activity call
NR2F2	1	-0.0145	0.0812	0.273	active
NR2F2	2	-0.0724	-0.146	0.0818	inactive
NR2F2	3	0.0205	-0.113	0.158	active
NR2F2	4	0.0177	0.146	0.413	active
CDKN2D	1	0.113	0.218	0.36	active
CDKN2D	2	0.069	0.127	0.117	active
CDKN2D	3	0.0808	0.0147	0.34	active
CDKN2D	4	-0.0749	0.0273	0.112	active
BMPR2	1	-0.143	-0.0506	0.0437	inactive
BMPR2	2	-0.101	-0.137	0.0266	inactive
BMPR2	3	-0.15	-0.144	-0.0638	inactive
BMPR2	4	-0.08	-0.0205	0.0507	inactive
PRAG1	1	-0.046	-0.0169	0.194	active
PRAG1	2	0.482	-0.0446	0.0558	active
PRAG1	3	0.055	-0.0445	0.059	inactive
PRAG1	4	0.0641	0.12	0.278	active
SF3B1	1	-0.0134	-0.0159	-0.0241	inactive
SF3B1	2	-0.0328	-0.104	-0.0545	inactive
SF3B1	3	-0.0841	-0.116	-0.0126	inactive
SF3B1	4	-0.0944	-0.0726	-0.022	inactive

A stretch from the list above, for reference:
Gene	reagent no.	synergy score with BYL719	synergy score with cetuximab	synergy score with trametinib	activity call
BMPR2	1	-0.143	-0.0506	0.0437	inactive
BMPR2	2	-0.101	-0.137	0.0266	inactive

More results follow.
Gene	reagent no.	synergy score with BYL719	synergy score with cetuximab	synergy score with trametinib	activity call
BRAF	1	-0.0616	0.068	0.179	active
BRAF	2	0.0829	0.2	0.291	active
BRAF	3	-0.0372	-0.0725	-0.119	inactive
BRAF	4	0.0546	0.0597	0.0964	inactive
COASY	1	-0.102	-0.0586	-0.00425	inactive
COASY	2	-0.00349	-0.085	0.0552	inactive
COASY	3	-0.122	0.161	0.124	active
COASY	4	-0.0244	0.00771	0.0663	inactive
HSPB8	1	-0.0457	0.0466	0.156	active
HSPB8	2	-0.0582	0.0398	0.101	active
HSPB8	3	0.0309	-0.0775	0.0854	inactive
HSPB8	4	-0.0569	0.0354	0.185	active
